# Some of the results follow.
# Sequences of proteins named here, by UniProt entry; tags and fusion partners are left off. A change or cut given only in a name is not applied to a line headed by its entry.
# UniProt Q96KQ7: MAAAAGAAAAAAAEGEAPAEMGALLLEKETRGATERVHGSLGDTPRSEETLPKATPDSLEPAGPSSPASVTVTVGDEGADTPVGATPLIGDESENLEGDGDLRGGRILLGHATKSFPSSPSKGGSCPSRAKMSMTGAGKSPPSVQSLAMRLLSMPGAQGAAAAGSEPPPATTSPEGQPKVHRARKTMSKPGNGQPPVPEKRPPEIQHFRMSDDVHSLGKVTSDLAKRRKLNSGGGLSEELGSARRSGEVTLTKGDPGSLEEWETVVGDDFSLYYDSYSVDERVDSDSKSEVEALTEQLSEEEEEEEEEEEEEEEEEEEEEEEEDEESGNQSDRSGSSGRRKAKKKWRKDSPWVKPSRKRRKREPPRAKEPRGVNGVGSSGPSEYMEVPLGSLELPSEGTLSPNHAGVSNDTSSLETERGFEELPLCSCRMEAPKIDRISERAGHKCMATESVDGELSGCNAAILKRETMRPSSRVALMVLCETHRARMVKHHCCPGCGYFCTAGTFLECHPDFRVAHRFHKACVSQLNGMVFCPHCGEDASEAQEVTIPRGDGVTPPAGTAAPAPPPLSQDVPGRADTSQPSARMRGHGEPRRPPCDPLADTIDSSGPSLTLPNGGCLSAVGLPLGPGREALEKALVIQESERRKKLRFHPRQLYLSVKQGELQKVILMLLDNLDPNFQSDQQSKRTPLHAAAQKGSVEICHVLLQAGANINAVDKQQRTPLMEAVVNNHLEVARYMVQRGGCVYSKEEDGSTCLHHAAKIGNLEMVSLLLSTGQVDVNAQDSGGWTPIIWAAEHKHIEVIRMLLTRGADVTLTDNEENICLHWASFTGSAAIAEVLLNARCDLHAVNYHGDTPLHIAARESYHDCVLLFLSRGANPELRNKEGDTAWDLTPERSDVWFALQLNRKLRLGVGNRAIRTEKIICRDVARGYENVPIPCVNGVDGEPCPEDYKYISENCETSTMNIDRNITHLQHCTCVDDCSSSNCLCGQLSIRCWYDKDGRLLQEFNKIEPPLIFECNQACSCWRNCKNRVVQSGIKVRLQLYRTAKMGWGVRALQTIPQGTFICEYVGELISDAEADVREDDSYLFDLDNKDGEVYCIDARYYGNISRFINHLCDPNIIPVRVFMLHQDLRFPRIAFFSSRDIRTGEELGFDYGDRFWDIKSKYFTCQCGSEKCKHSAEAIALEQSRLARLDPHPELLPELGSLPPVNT
# UniProt O75071: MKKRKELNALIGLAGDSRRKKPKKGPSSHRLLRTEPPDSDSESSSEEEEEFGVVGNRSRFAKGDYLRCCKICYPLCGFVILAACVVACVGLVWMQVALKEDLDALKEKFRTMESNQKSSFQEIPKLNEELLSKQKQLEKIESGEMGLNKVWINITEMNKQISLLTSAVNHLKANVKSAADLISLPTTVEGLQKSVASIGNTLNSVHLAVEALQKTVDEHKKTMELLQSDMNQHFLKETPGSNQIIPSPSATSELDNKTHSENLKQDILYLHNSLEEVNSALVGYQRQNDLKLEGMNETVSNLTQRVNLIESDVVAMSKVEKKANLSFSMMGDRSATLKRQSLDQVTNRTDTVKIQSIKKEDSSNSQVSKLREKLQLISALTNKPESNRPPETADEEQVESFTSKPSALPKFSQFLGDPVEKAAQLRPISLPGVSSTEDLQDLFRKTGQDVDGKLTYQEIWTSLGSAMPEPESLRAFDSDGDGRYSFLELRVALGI
# UniProt O43432, whole entry, looked up: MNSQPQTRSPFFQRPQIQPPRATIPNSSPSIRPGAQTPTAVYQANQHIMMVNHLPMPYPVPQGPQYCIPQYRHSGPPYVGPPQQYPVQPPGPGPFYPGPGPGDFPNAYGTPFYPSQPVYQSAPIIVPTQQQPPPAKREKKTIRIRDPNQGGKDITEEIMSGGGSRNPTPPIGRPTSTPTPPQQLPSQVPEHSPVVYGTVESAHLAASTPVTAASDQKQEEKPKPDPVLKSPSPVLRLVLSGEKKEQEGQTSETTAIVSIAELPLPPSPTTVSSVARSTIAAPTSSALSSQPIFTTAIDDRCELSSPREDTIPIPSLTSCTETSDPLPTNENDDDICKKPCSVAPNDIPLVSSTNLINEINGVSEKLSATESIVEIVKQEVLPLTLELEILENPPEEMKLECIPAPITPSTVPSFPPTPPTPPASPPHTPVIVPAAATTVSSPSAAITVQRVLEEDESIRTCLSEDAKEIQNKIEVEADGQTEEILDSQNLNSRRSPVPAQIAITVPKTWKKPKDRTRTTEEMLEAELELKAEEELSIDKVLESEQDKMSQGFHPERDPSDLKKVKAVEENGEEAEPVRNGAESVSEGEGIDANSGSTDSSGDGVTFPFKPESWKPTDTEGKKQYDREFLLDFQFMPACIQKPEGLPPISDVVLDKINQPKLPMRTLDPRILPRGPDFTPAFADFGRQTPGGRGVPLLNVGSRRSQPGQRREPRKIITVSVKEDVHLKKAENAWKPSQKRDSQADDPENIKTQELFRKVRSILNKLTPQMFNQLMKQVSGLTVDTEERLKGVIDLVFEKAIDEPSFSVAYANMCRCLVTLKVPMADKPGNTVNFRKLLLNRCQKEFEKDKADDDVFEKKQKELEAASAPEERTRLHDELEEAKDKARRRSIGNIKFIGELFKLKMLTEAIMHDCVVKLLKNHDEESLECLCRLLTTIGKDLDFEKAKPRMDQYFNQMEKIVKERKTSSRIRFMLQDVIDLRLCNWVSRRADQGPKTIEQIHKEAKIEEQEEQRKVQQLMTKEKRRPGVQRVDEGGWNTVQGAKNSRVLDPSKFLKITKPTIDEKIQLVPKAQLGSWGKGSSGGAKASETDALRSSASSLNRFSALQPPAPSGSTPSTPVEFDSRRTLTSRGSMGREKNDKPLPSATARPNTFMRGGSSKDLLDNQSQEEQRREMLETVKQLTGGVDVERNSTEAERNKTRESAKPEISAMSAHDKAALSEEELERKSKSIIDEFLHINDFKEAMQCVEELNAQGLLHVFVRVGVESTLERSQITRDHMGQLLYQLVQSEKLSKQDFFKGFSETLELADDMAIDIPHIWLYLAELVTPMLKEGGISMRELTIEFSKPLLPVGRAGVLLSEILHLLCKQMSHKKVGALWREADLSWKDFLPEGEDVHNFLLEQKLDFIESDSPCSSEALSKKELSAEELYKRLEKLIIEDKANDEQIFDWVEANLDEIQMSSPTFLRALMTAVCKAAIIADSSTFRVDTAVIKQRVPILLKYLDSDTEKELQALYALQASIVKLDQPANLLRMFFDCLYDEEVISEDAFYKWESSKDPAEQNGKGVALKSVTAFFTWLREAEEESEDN
# UniProt Q9BQI3, whole entry, looked up: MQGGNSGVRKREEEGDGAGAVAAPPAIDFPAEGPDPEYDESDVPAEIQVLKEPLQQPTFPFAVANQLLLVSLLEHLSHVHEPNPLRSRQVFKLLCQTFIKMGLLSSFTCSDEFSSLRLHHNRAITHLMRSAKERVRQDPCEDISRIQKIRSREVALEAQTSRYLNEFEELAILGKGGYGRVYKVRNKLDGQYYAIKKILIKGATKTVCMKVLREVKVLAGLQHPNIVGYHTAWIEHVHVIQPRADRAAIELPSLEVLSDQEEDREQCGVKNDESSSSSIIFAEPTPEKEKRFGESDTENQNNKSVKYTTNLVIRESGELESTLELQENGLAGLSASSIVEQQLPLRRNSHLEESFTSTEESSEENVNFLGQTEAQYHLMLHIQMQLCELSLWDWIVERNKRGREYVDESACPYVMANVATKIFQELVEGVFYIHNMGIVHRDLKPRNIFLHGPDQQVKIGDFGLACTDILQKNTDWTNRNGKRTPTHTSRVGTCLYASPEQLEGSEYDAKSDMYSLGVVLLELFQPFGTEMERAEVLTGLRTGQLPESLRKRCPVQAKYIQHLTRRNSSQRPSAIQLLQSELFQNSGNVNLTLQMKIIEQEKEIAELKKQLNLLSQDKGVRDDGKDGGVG
# UniProt O75354: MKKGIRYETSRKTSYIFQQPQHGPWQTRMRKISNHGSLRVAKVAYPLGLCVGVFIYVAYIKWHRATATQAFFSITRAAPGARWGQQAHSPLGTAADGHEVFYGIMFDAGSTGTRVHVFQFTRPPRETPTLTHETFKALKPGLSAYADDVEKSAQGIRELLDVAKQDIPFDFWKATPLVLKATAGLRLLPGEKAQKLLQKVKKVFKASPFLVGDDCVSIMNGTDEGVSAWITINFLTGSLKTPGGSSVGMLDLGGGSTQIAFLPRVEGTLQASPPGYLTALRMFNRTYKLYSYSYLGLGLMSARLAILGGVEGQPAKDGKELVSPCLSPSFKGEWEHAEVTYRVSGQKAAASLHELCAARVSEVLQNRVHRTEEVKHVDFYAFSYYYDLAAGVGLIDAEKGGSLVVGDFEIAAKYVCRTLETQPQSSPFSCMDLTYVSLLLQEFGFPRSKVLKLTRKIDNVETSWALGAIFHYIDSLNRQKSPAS
# UniProt Q15369, whole entry, looked up: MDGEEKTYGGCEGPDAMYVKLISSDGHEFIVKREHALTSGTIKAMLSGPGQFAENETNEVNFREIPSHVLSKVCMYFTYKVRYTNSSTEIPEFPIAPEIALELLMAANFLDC
# UniProt Q9UHF1: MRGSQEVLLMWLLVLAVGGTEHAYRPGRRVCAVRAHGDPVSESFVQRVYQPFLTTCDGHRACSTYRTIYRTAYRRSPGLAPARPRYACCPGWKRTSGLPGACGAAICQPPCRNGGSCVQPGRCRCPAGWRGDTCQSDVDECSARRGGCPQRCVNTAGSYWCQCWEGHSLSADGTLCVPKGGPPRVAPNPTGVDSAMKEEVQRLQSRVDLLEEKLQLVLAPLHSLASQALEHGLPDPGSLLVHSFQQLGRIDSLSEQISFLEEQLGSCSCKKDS
# UniProt Q32P44: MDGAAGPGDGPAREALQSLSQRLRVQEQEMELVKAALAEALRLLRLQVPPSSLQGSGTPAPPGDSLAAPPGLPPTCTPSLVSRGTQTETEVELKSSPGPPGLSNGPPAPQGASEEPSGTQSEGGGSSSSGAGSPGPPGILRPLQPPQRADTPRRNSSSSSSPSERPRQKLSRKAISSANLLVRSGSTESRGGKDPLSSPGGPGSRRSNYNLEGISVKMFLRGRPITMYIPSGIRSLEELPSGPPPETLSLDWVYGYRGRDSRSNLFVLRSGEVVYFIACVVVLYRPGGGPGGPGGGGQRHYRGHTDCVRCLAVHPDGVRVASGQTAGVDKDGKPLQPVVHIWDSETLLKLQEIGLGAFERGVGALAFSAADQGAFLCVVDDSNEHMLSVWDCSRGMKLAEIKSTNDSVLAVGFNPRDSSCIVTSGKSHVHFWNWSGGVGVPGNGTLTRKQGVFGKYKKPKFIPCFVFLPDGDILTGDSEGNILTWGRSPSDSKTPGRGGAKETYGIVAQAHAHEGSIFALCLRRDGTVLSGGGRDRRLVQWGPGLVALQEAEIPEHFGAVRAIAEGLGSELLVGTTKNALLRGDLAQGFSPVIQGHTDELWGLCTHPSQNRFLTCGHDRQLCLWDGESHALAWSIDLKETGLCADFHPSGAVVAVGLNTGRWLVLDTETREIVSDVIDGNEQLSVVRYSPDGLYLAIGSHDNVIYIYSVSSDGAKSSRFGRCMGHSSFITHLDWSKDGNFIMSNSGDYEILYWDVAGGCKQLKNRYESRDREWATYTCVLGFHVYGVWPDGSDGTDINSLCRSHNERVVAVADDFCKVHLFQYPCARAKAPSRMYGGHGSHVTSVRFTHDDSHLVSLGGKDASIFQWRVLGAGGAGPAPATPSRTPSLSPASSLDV
# UniProt Q9NYP7: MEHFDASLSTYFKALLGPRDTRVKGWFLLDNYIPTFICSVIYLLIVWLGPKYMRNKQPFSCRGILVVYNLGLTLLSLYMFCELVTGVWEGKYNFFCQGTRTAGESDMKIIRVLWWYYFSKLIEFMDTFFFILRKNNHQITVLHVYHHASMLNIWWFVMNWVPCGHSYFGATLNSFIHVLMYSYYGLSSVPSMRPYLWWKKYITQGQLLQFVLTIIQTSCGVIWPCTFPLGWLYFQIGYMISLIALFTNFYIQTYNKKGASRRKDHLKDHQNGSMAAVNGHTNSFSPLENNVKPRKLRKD
# UniProt Q12805: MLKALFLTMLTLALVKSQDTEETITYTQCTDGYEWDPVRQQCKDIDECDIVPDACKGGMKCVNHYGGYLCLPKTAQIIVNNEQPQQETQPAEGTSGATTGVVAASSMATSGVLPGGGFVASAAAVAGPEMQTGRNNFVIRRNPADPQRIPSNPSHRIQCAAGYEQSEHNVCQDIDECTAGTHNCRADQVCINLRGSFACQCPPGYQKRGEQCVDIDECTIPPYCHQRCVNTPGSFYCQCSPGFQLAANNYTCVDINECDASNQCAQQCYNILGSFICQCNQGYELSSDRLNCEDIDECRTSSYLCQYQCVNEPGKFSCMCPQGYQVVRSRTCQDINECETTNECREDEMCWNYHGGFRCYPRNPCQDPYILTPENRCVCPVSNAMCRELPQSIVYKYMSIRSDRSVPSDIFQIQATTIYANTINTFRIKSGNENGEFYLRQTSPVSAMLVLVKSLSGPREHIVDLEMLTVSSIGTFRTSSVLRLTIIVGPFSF
# Tests used:
# Test in all cases: log2 fold change, soluble protein after heating vs DMSO (PISA); higher = thermal stabilisation; K562 cells, 10 uM, 30 min; active = over 0.2 and 3.5 SD of the protein, either way, in both replicates (recomputed)
# [1] = compound: CC1=C(C=C(C=C1)NC(=O)C2=CC(=CC=C2)C(C)(C)C#N)NC3=CC4=C(C=C3)N=CN(C4=O)C
# Method in brief: (§1)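 Aliquots of K562 cells (2×10^6 cells/mL) treated with 10 μM compound for 30 min were heated for 3 min over 48°C-58°C. After pooling and extraction in PBS with 0.5% NP-40 at 4°C, soluble protein from a 21,000xg, 90 min spin was quantified by TMTpro 16plex LC-MS/MS with channel sums equalised. Thermal stability is expressed against control samples, from duplicates, as a log2 fold change.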
# [2] = compound: CC1=C(C=C(C=C1)NC(=O)C2=CC(=CC=C2)N(C)C)NC(=O)C3=CC=C(C=C3)O
# Method in brief: as §1
# [3] = compound: CC1=CC=C(C=C1)SC2=C3C=C(SC3=CN=C2)C(=O)N
# Method in brief: as §1
# [4] = compound: CC1=NC(=CC=C1)C2=C(N=C(N2)C(C)(C)C)C3=CC4=NC=CN=C4C=C3
# Method in brief: as §1
# [5] = compound: CCCCN(Cc1ccc(C(=O)NO)cc1)C(=O)Nc1ccccc1 [Nexturastat A]
# Method in brief: as §1
# [6] = compound: CCCS(=O)(=O)Nc1ccc(F)c(C(=O)c2c[nH]c3ncc(-c4ccc(Cl)cc4)cc23)c1F [vemurafenib]
# Method in brief: as §1
# [7] = compound: CCCS(=O)(=O)Nc1ccc(F)c(C(=O)c2c[nH]c3ncc(Cl)cc23)c1F
# Method in brief: as §1
# [8] = compound: CCCc1cc(C)[nH]c(=O)c1CNC(=O)c1cc(-c2ccnc(N3CCN(C)CC3)c2)cc2c1cnn2C(C)C
# Method in brief: as §1
# [9] = compound: CCN(CC)Cc1ccc2cc(COC(=O)Nc3ccc(C(=O)NO)cc3)ccc2c1 [givinostat]
# Method in brief: as §1
# [10] = compound: CCN(CCCOc1ccc2c(Nc3cc(CC(=O)Nc4cccc(F)c4)[nH]n3)ncnc2c1)CCOP(=O)(O)O [barasertib]
# Method in brief: as §1
# [11] = compound: CC[C@@H]1C(=O)N(C)c2cnc(Nc3ccc(C(=O)NC4CCN(C)CC4)cc3OC)nc2N1C1CCCC1
# Method in brief: as §1
# [12] = compound: CC[C@@H]1C(=O)N(C)c2cnc(Nc3ccc(C(=O)N[C@H]4CC[C@H](N5CCN(CC6CC6)CC5)CC4)cc3OC)nc2N1C(C)C [volasertib]
# Method in brief: as §1
# [13] = compound: CC[C@H](C)N1C=C(C2=C(C=C(C=C21)C3=CN=C(C=C3)N4CCNCC4)C(=O)NCC5=C(C=C(NC5=O)C)C)C
# Method in brief: as §1
# [14] = compound: CC[C@H](C)[C@@H](C(=O)N[C@@H]([C@@H](C)O)C(=O)N[C@@H](CC(C)C)C(=O)[C@]1(CO1)C)NC(=O)[C@H]([C@@H](C)CC)N(C)C(=O)C [epoxomicin]
# Method in brief: as §1
# [15] = compound: CCn1c(C(=O)N(C2CC2)C2CC2)cc2c3c(ncn3C)c(Nc3cc(C)n(C)n3)nc21
# Method in brief: as §1
# [16] = compound: CCn1cc(-c2ccnc3[nH]c(-c4cccc(CN(C)C)c4)cc23)c(-c2ccc(NC(=O)N(C)C)cc2)n1
# Method in brief: as §1
# [17] = compound: CN(C)CC(=O)Nc1ccc2[nH]c(=O)c3ccccc3c2c1
# Method in brief: as §1
# [18] = compound: CN(CCOC1=CC=C(C=C1)C[C@H]2C(=O)NC(=O)S2)C3=CC=CC=N3 (racemic) [rosiglitazone]
# Method in brief: as §1
# [19] = compound: CN1C2=C(C3=C1C(=O)N(N=C3)CC4=CC(=CC=C4)N)SC(=C2)S(=O)C
# Method in brief: as §1
# [20] = compound: CN1CCC(CNc2ccc3ncc(-c4cccc(OC(F)(F)F)c4)n3n2)CC1
# Method in brief: as §1
Target,log2 fold change [1],log2 fold change [2],log2 fold change [3],log2 fold change [4],log2 fold change [5],log2 fold change [6],log2 fold change [7],log2 fold change [8],log2 fold change [9],log2 fold change [10],log2 fold change [11],log2 fold change [12],log2 fold change [13],log2 fold change [14],log2 fold change [15],log2 fold change [16],log2 fold change [17],log2 fold change [18],log2 fold change [19],log2 fold change [20]
EHMT2 (UniProt Q96KQ7),inactive: -0.016,inactive: -0.047,inactive: 0.018,inactive: -0.006,inactive: -0.091,inactive: -0.063,inactive: -0.064,inactive: 0.084,inactive: 0.007,inactive: 0.038,inactive: 0,inactive: -0.06,inactive: 0.016,inactive: 0.05,inactive: 0.041,inactive: 0.079,inactive: -0.028,inactive: -0.006,inactive: 0.029,inactive: -0.092
EIF4A1 (UniProt P60842),inactive: 0.106,inactive: -0.017,inactive: 0.061,inactive: 0.049,inactive: -0.115,inactive: 0.055,inactive: 0.089,inactive: 0.151,inactive: 0.06,inactive: 0.026,inactive: -0.106,active: -0.273,inactive: 0.079,inactive: 0.001,–,inactive: -0.052,inactive: 0.047,–,inactive: -0.046,inactive: -0.126
EIF4B (UniProt P23588),inactive: 0.02,inactive: 0.013,inactive: -0.009,inactive: 0.015,inactive: -0.008,inactive: -0.043,inactive: -0.03,inactive: 0.011,inactive: -0.03,inactive: 0.008,inactive: 0.005,inactive: 0.113,inactive: -0.038,inactive: -0.004,inactive: 0,inactive: 0.041,inactive: -0.017,inactive: -0.001,inactive: 0.005,inactive: 0.035
EEF1D isoform 2 (UniProt P29692),inactive: 0.039,inactive: -0.034,inactive: -0.012,inactive: -0.003,inactive: 0.029,inactive: -0.044,inactive: 0.049,inactive: -0.004,inactive: 0.038,inactive: 0.02,inactive: -0.089,active: -0.336,inactive: -0.001,inactive: 0.008,–,inactive: 0.05,inactive: -0.022,–,inactive: 0.015,inactive: -0.039
EHBP1L1 (UniProt Q8N3D4),inactive: 0,inactive: -0.02,inactive: -0.003,inactive: -0.043,inactive: 0.011,inactive: 0.034,inactive: 0.007,inactive: 0.025,inactive: 0.026,inactive: 0.016,inactive: -0.035,active: -0.307,inactive: 0.091,inactive: 0.072,–,inactive: -0.055,inactive: 0.029,–,inactive: 0.077,inactive: 0.101
ENDOD1 (UniProt O94919),inactive: -0.026,inactive: 0.028,inactive: -0.021,inactive: -0.066,inactive: -0.047,inactive: -0.05,inactive: -0.06,inactive: -0.022,inactive: 0.005,inactive: -0.013,inactive: 0.005,inactive: 0.024,inactive: -0.02,inactive: -0.013,inactive: 0.046,inactive: -0.03,inactive: 0.009,inactive: -0.015,inactive: -0.068,inactive: 0.001
EFCAB14 (UniProt O75071),inactive: -0.034,inactive: 0.061,inactive: 0.022,inactive: -0.011,inactive: -0.032,inactive: -0.049,inactive: 0.012,inactive: 0.023,inactive: 0.054,inactive: -0.01,inactive: -0.033,inactive: -0.089,inactive: -0.078,inactive: 0.068,–,inactive: 0.06,inactive: -0.018,–,inactive: 0.028,inactive: -0.178
EIF4G3 isoform 3 (UniProt O43432),inactive: -0.024,inactive: 0.01,inactive: 0,inactive: -0.015,–,inactive: 0.047,inactive: 0.002,inactive: 0.067,inactive: 0.08,inactive: 0.059,inactive: -0.074,inactive: -0.165,inactive: 0.007,–,–,–,inactive: 0.039,–,inactive: 0.021,–
EIF2AK1 (UniProt Q9BQI3),inactive: -0.027,inactive: -0.007,inactive: 0.079,inactive: -0.019,inactive: -0.087,inactive: 0.005,inactive: 0.044,inactive: 0.179,inactive: -0.051,inactive: -0.017,–,inactive: -0.142,–,inactive: 0.13,–,inactive: 0.034,inactive: -0.121,–,inactive: 0.006,inactive: -0.082
ENTPD6 (UniProt O75354),inactive: 0.085,inactive: 0.025,inactive: -0.007,–,inactive: -0.019,–,inactive: -0.007,inactive: 0.188,inactive: 0.036,inactive: 0.065,inactive: 0.002,inactive: -0.176,inactive: 0.009,inactive: 0.055,inactive: 0.02,inactive: 0.126,–,inactive: 0.057,inactive: 0.003,inactive: -0.055
ENO2 (UniProt U3KQQ1),inactive: -0.3,–,inactive: -0.294,inactive: -0.14,–,–,inactive: -0.339,–,–,inactive: 0.146,–,inactive: 0.124,–,–,–,inactive: -0.351,–,inactive: 0.057,–,inactive: -1.04
EEF1B2 (UniProt P24534),inactive: 0.024,inactive: -0.025,inactive: -0.007,inactive: 0.031,inactive: 0.031,inactive: 0.024,inactive: 0.02,inactive: -0.009,inactive: 0.023,inactive: 0.055,inactive: -0.171,active: -0.343,inactive: 0.056,inactive: -0.034,–,inactive: 0.007,inactive: 0.016,–,inactive: 0.03,inactive: -0.065
ELOC (UniProt Q15369),inactive: 0.016,inactive: -0.034,inactive: 0.008,inactive: 0.001,inactive: -0.027,inactive: 0.017,inactive: 0.031,inactive: 0,inactive: -0.035,inactive: 0.026,inactive: -0.009,inactive: -0.016,inactive: 0.042,inactive: 0.028,–,inactive: -0.087,inactive: 0.108,–,inactive: -0.033,inactive: -0.014
EGFL7 (UniProt Q9UHF1),inactive: -0.094,–,–,–,inactive: 0.039,–,–,–,–,inactive: -0.076,–,–,–,inactive: 0.016,–,inactive: 0.042,–,inactive: 0.111,–,inactive: 0.353
EML3 (UniProt Q32P44),inactive: -0.018,inactive: -0.015,inactive: -0.134,inactive: -0.078,inactive: 0.027,–,inactive: 0.046,inactive: 0.1,inactive: 0.124,inactive: 0.032,inactive: 0.195,inactive: -0.082,inactive: 0.224,inactive: -0.076,inactive: -0.059,inactive: -0.081,–,inactive: 0.105,inactive: 0.359,inactive: -0.032
ELOVL5 isoform 2 (UniProt Q9NYP7),inactive: 0.079,inactive: 0.02,inactive: 0.002,–,inactive: -0.05,inactive: 0.065,inactive: 0.03,inactive: -0.241,inactive: -0.008,inactive: 0.035,inactive: -0.227,inactive: -0.164,inactive: 0.026,inactive: -0.034,–,inactive: -0.206,inactive: 0.021,–,inactive: -0.044,active: -0.691
ELMO1 (UniProt Q92556),inactive: -0.075,inactive: -0.005,–,inactive: -0.074,inactive: -0.101,inactive: -0.172,–,inactive: 0.218,inactive: -0.043,inactive: -0.105,–,–,inactive: -0.089,inactive: -0.109,–,–,inactive: 0.031,–,inactive: -0.078,–
"EED, A0A5F9ZI63",inactive: 0.005,inactive: -0.067,inactive: -0.012,inactive: -0.019,inactive: 0.013,inactive: -0.02,inactive: 0.025,active: -0.204,inactive: 0.082,inactive: -0.038,inactive: -0.052,inactive: -0.055,inactive: -0.159,inactive: -0.032,–,inactive: 0.068,inactive: -0.099,–,inactive: 0.045,inactive: 0.209
EFEMP1 (UniProt Q12805),inactive: 0.116,inactive: 0.043,inactive: 0.093,inactive: 0.093,–,–,inactive: -0.057,–,inactive: 0.002,–,–,inactive: -0.07,–,–,inactive: -0.044,inactive: 0.024,–,–,inactive: 0.243,inactive: -0.091

# In another format: results already given
Target | log2 fold change [1] | log2 fold change [2] | log2 fold change [3] | log2 fold change [4] | log2 fold change [5] | log2 fold change [6] | log2 fold change [7] | log2 fold change [8] | log2 fold change [9] | log2 fold change [10] | log2 fold change [11] | log2 fold change [12] | log2 fold change [13] | log2 fold change [14] | log2 fold change [15] | log2 fold change [16] | log2 fold change [17] | log2 fold change [18] | log2 fold change [19] | log2 fold change [20]
EIF4G3 isoform 3 (UniProt O43432) | inactive: -0.024 | inactive: 0.01 | inactive: 0 | inactive: -0.015 | – | inactive: 0.047 | inactive: 0.002 | inactive: 0.067 | inactive: 0.08 | inactive: 0.059 | inactive: -0.074 | inactive: -0.165 | inactive: 0.007 | – | – | – | inactive: 0.039 | – | inactive: 0.021 | –
EED, A0A5F9ZI63 | inactive: 0.005 | inactive: -0.067 | inactive: -0.012 | inactive: -0.019 | inactive: 0.013 | inactive: -0.02 | inactive: 0.025 | active: -0.204 | inactive: 0.082 | inactive: -0.038 | inactive: -0.052 | inactive: -0.055 | inactive: -0.159 | inactive: -0.032 | – | inactive: 0.068 | inactive: -0.099 | – | inactive: 0.045 | inactive: 0.209

# Source: the supplement of paper PMC10849652
